This is an account of results in article PMC12288273.

Chains of the proteins cited; added tags and fusions are not shown. Lines headed by an entry give the natural chain unless they say otherwise; changes in a name come on top. Residues count along the entry.
UniProt P25774: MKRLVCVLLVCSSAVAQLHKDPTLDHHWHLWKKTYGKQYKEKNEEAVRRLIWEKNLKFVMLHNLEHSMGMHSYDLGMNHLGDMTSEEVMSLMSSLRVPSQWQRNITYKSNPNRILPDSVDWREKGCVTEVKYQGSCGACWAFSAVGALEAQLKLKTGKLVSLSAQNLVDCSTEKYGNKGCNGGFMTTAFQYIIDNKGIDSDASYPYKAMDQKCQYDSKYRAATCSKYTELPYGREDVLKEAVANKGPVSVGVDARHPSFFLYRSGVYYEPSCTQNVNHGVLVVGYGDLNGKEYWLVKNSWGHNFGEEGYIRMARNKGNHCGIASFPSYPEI
UniProt P16871: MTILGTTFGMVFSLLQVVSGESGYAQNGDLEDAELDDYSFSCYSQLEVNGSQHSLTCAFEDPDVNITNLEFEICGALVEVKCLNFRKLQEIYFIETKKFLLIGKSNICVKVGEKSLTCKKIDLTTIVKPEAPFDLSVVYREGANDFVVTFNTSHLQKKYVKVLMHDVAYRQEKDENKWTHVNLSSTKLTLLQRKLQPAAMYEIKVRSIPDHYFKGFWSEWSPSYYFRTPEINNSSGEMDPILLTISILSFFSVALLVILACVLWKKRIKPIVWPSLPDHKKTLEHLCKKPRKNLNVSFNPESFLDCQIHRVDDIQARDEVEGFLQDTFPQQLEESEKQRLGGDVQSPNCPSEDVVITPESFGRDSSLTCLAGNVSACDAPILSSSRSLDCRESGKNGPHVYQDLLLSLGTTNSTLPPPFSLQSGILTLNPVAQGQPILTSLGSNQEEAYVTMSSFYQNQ
myc-IL-7R: residues 21-459 of P16871
myc-IL-7R 1–414: residues 21-414 of P16871
myc-IL-7R 1–364: residues 21-364 of P16871
myc-IL-7R 1–314: residues 21-314 of P16871

Experiment [1] deals with Cathepsin S (human (endogenous in OEC-M1)) (UniProt P25774). The experiment is described as follows: co-IP; CTSS precipitated with anti-CTSS antibody from lysate of OEC-M1 cells pretreated with siScramble or siCTSS; IL-7R detected by Western blot; protein A Sepharose, 4 °C overnight, 0.5% NP-40.
Experiment [2] addresses IL-7R-RFP (pCMV6-AC-mRFP-IL-7R) (UniProt P16871). The experiment is described as follows: FRET or BRET; OEC-M1 cells co-transfected with CTSS-mGFP (donor) and IL-7R-mRFP or IL-7R 1-264-mRFP (acceptor), 48 h, fixed, confocal microscopy.
In a further experiment the target is myc-IL-7R 1–414 (UniProt P16871). Kind of experiment: co-IP; OEC-M1 cells transfected with myc-tagged IL-7R or truncations, 48 h; myc tag precipitated with anti-myc antibody; CTSS detected by Western blot.
In a further experiment the target is myc-IL-7R 1–314 (UniProt P16871). Described as above.
Experiment [3] concerns the target myc-IL-7R (pCDNA3.1 myc-IL-7R) (UniProt P16871). Described as above.
Another experiment addresses myc-IL-7R 1–364 (UniProt P16871). The experiment is described as above.

These are yes or no findings as the source states them, for the method shown. In cells and extracts the contact can be indirect. A result given as binding can be weak or reduced; the word gives no strength.

For the substance “IL-7 receptor (from UniProt P16871 21-459)”, in experiment [1], the binding entry is recorded as “binds”.

As to “CTSS-GFP (pCMV6-AC-mGFP-CTSS) (from UniProt P25774) (enzyme)”, in experiment [2], the binding entry was “binds”.

Take “Cathepsin S (from UniProt P25774) (enzyme)”: the binding entry (in the experiment with myc-IL-7R 1–414; in the experiment with myc-IL-7R 1–314; in experiment [3]; with myc-IL-7R 1–364) was “binds” in each case.
